The experiment can be described thus: qHTS Assay for Lipid Storage Modulators in Drosophila S3 Cells.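 For cell number change: cells counted by Cell Tracker Red CMTPX staining in the red channel.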 As to conditions: BODIPY lipid droplet fluorescence, 18-24 h; for cell number change: measured here: cell count max response, cells fed with added oleic acid. The gist of the method:
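Laser-scanning cytometry quantifies lipid droplet accumulation (500–530 nm total intensity; droplet/cell object ratio) in oleic acid-fed (400 uM added) Drosophila S3 cells treated with a concentration series. 20 uM Triacsin C defined 100% inhibition.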

[1] abbreviates: measured here: cell number channel AC50, cells fed with added oleic acid.
Where [2] appears, read: measured here: lipid fluorescence (Fed channel) AC50, cells fed with added oleic acid.

Each structure is given as a SMILES string. Some of the results follow. Shown are side measurements of this screen, not its main read-out; they come without a call. Most of these compounds were active or inconclusive in the main read-out, so they are no random draw. The note in brackets gives the kind of curve behind each potency; many fits are weak.

As to `COc1ccc(C2C(C(N)=O)=C(C)Nc3nc(-c4ccccc4)nn32)cc1OC` (configuration not stated), the cell number change came to 43.9%. For the same molecule, the AC50 under setting [1] was 18.4 µM [rising, single point].
For the molecule `CCn1c2ccccc2c2cc(/C=N/n3c(-c4cc(C)[nH]n4)n[nH]c3=S)ccc21`, the cell number change was -21.4%.
`COc1cc(NC(=O)CSc2nc3cc(C)ccc3cc2C)c(C(=O)O)cc1OC`: the cell number change is 16.3%. Also, the AC50 under setting [2] was 3.26 µM [falling, single point].
Regarding `O=C(c1ccc2c(c1)OCO2)N1CCc2ccccc21`, the cell number change is -7.62%. Moreover, under setting [2], the AC50 was 0.231 µM [rising, full curve, poor fit].
With `COc1ccc2c(C)cc(N3CCN(c4ccc(F)cc4)CC3)nc2c1`, the cell number change was 32.7%. Besides, under setting [1], the AC50 is 0.58 µM [rising, full curve]. Also, the AC50 under setting [2] is 2.91 µM [rising, partial curve].
Turning to `COc1cccc(C(O)c2cnc(C(C)C)n2C)c1` (configuration not stated), the cell number change is 0.961%. Besides, the AC50 under setting [2] is 4.11 µM [rising, single point].
`Cn1cnnc1SCC(=O)Nc1ccc(OCc2ccccc2)cc1`: the cell number change is -13.7%.
Same read-out and setting: the result for `CCC(=O)N1CCN(c2ccc(NC(=O)c3ccco3)cc2)CC1` reads 5.94%.
With `C=CCOc1ccccc1/C=N/NC(=O)c1ccc(Cl)cc1Cl`, the cell number change was 44.5%. Also, the AC50 under setting [1] is 5.8 µM [rising, partial curve]. Besides, the half-maximal activity concentration (AC50) under setting [2] is 9.2 µM [rising, partial curve].
As for `COc1cc(OC)cc(C(=O)N[C@H](C(=O)NCCc2c[nH]c3ccccc23)C(C)C)c1`, the cell number change came to 50.9%. The AC50 under setting [1] was 13 µM [rising, partial curve, poor fit]. Besides, the AC50 under setting [2] is 13 µM [rising, partial curve].
`Cc1cc(OC(=O)c2cccc(Cl)c2)c([N+](=O)[O-])c(=O)[nH]1`: the cell number change was -0.236%. For the same molecule, the AC50 under setting [2] is 29.1 µM [rising, single point].
Regarding `CC(C)(C#N)Cc1cc(CC(C)(C)C#N)cc(C(C)(C)C)c1`, the cell number change stood at 0.971%. The AC50 under setting [2] was 0.0326 µM [falling, full curve, poor fit].
As for `Cc1nn(C)c(C)c1NC(=O)CCSc1nc(-c2ccco2)cc(C(F)(F)F)n1`, the AC50 under setting [1] was 0.0517 µM [rising, full curve, poor fit].
Take `Clc1ccc(OCCN2CCN(c3ncnc4sccc34)CC2)cc1`: the cell number change was -34.9%.
Consider `O=C(O)Cn1cnc2sc3c(c2c1=O)CCCC3`, for which the cell number change was 1.3%.
Turning to `CC(C)COc1ccc(CNC(=S)Nc2ccccc2)cc1Cl`, the cell number change is -60.9%. For the same molecule, the AC50 under setting [1] was 25.9 µM [falling, partial curve].
With `Cc1cccc(OCC(=O)N2CCN(S(C)(=O)=O)CC2)c1`, the cell number change is -6.25%.
On to `CC(C)Cn1cnc2c1c(=O)n(CC(=O)NN)c(=O)n2Cc1ccccc1`, for which the cell number change came to 27.1%. Moreover, the AC50 under setting [2] was 6.51 µM [rising, full curve, poor fit].

The record behind these values is PubChem BioAssay AID2685 (National Center for Advancing Translational Sciences (NCATS), 2010).
